Measurements from “University of Dundee, Small-Polar-MMV Screening Library” (2021), ChEMBL document CHEMBL3988442.

Mtb growth Cornell: 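Whole-cell assay for inhibitors of Mycobacterium tuberculosis growth, labelled Cornell in the record; the read-out is not stated. The concentration is filed as 10 mM, unlikely as a test dose, so the dose is not known. Higher means stronger inhibition (inferred from two other growth screens of the library). About 53,000 compounds were tested under these conditions; 1.7% (about 900) showed 50% or more at least once.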
Mtb heat-shock: 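Assay on Mycobacterium tuberculosis, filed only as a heat shock assay from Cornell; the read-out is not stated. The concentration is filed as 10 mM, unlikely as a test dose, so the dose is not known. Direction is inferred from retests: higher values go with stronger inhibition. About 69,000 compounds were tested under these conditions; 1.4% (about 930) showed 50% or more at least once.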

Results are given as percent effect. How 0% and 100% were set is not recorded. Most values in the screen are low, and negative values occur. This is an unselected part of the compounds tested. A dash means the value is not listed here; it may have been measured.

Compound | Mtb growth Cornell | Mtb heat-shock
CN(C)[C@@H]1C[C@@H](CO)N(C(=O)Nc2cccc(F)c2F)C1 | -29.01 | -10.81
Cn1cccc1C(=O)NC1CCN(c2ccc(OC(F)(F)F)cc2)CC1 | -20.14 | 0.1093
COc1ccc(C2Nc3cc(Cl)ccc3C3=NCCN32)cc1O (stereo not shown) | 10.02 | -3.535
O=C(O)C(F)(F)F.[H][C@]12CCC[C@@H](CNc3ccccn3)[C@@]1([H])CN(c1ncccn1)C2 | 0.2736 | 21.43
Cc1ncc(CN(C)C)c(C2CCCN2c2ncccn2)n1 (stereo not shown) | 3.651 | -17.71
CCC(CC)C(=O)n1ccn(S(=O)(=O)c2ccc(C)cc2)c1=O | 8.095 | -12.77
CCN(CCCc1ccccc1C)S(C)(=O)=O | 15.85 | 10.82
O=C(O)C(F)(F)F.[H][C@@]12OCCN(c3ncccn3)[C@@]1([H])CC[C@H]2OCC1CC1 | 10.88 | 10.71
COc1ccc(CN(C)C(=O)c2nnc(CN(C)C)o2)cc1 | - | -15.5
CCCc1cnc(C)nc1N1CCC2(CC1)CNC(=O)O2 | 3.509 | 11.36
OCC1(O)CCN(c2ccnc3c(C(F)(F)F)cccc23)CC1 | 6.707 | 7.613
COc1cccc(CN2CCc3nc(C(N)=O)sc3CC2)c1.O=C(O)C(F)(F)F | 23.31 | 19.39
O=C(CC1CC1)N1CCC2(CCCN(c3ncccn3)C2)CC1 | 9.992 | 6.99
Cc1cccc(CNC(=O)Nc2cc(C(F)(F)F)c[nH]c2=O)n1 | 15.88 | -7.444
Cn1c(C(=O)N2CCC(C(=O)N3CCCC3)CC2)c(Cl)c2ccccc21 | 35.79 | -5.193
[H][C@@]12CN(Cc3cc4ccccc4o3)C[C@]1(C(=O)O)CN(CC1CC1)C2=O | - | 14.51
CCOC1CCN(C(=O)c2ccc(-n3ncc(C#N)c3N)cc2)CC1 | -23.81 | 18.57
CC(C)[C@H]1CN(CCCO)C[C@@H]1NC(=O)CCC(F)(F)F | -0.6997 | 13.4
Cc1cnn(CC(C)NCc2ccc(OCc3nccn3C)cc2)c1 (stereo not shown) | 3.706 | -7.408
O=C(CCC(=O)NCc1cccc(Br)c1)NCCN1CCCC1 | - | -24.66
CN1CCCC(N2CCN(c3cc(C(F)(F)F)ccn3)CC2)C1 (stereo not shown) | 21.36 | -23.65
Cn1cc(C(=O)N2CCC(c3ncc[nH]3)CC2)cn1 | - | 13.42
CCn1nnc2c1C(COCCN(C)C)CN(Cc1ccco1)C2.O=C(O)C(F)(F)F.O=C(O)C(F)(F)F (stereo not shown) | -21.67 | -16.84
CCN(C)c1ncnc2c1CCN(C(=O)[C@H]1CCCO1)CC2 | 24.84 | -17.13
CCc1nc(CN2CCCN(C(=O)C(C)n3cncn3)CC2)cs1 (stereo not shown) | -17.95 | 3.1
CC(=O)Nc1nc(C2CCN(C(C)=O)CC2)cs1 | - | 13.11
CNC(=O)[C@@H](C1CCCCC1)N1CCC[C@H]1C(=O)NC1CC1 | - | -6.622
CC(C)CN1CC2(CCN(C(=O)c3nc4ncccn4n3)CC2)CC1=O | 13.77 | 0.4179
CC(C)[C@@H]1CN(Cc2cnc(C3CCCCC3)nc2)C[C@H]1N(C)C | -16.32 | -20.32
CCCn1ccnc1CN1CCc2[nH]cnc2C1Cc1ccccc1 (stereo not shown) | 12.07 | 9.031
O=S(=O)(c1c(Cl)nc2sccn12)N1CCCC2(CCNC2)C1 (stereo not shown) | 5.466 | -8.928
COCC1CN(c2ncccn2)Cc2cnn(CC3CC3)c21 (stereo not shown) | 11.5 | 8.881
COc1ccc(S(=O)(=O)NC(=O)c2ccccc2F)cc1OC | - | -14.46
COc1ccc(CN(C(=O)C(C)C)c2cnn(C)c2)c(OC)c1 | 33.23 | -3.241
CC(CO)NC(=O)Nc1ccc(S(C)(=O)=O)nc1 (stereo not shown) | - | -6.057
c1ccc(Oc2cc(CNCC3CNc4ccnn4C3)ccn2)cc1 (stereo not shown) | - | 9.298
COc1ccc(C)cc1CN1CCCC1c1noc(C2CC2)n1 (stereo not shown) | 38.72 | 82.36
O=S(=O)(CCCNCCn1cccn1)c1ccccc1 | -14.25 | -9.263
[H][C@@]12CN(C(=O)c3cnc(C)cn3)C[C@@]1([H])N(CC1CCCC1)C(=O)CO2 | -23.28 | -12.41
Cn1cc(-c2cnc(N3CCOCC3)nc2)cc1C(=O)NCCO.O=C(O)C(F)(F)F | - | 10.75
O=C(Nc1cc(F)ccc1OCC1CCCO1)c1ccccn1 (stereo not shown) | - | -14.66
O=C(O)C(F)(F)F.c1nc2c(c(C3CC3)n1)CCN(CC1CCOC1)CC2 (stereo not shown) | -3.081 | 4.72

For reference, 5 entries once more:

Compound,Mtb growth Cornell,Mtb heat-shock
Cc1ncc(CN(C)C)c(C2CCCN2c2ncccn2)n1 (stereo not shown),3.651,-17.71
[H][C@@]12CN(Cc3cc4ccccc4o3)C[C@]1(C(=O)O)CN(CC1CC1)C2=O,-,14.51
O=C(O)C(F)(F)F.[H][C@@]12OCCN(c3ncccn3)[C@@]1([H])CC[C@H]2OCC1CC1,10.88,10.71
Cn1cc(-c2cnc(N3CCOCC3)nc2)cc1C(=O)NCCO.O=C(O)C(F)(F)F,-,10.75
O=S(=O)(c1c(Cl)nc2sccn12)N1CCCC2(CCNC2)C1 (stereo not shown),5.466,-8.928